Measurements reported in article PMC10681733.
Results are given in words; binding and its absence hold for the method and conditions named. Binding seen in cells or lysates may run through a third protein. A yes stands for co-enrichment or nearness to the bait. Other partners may have been found. For some assays here: Sequences can lack the tags named with a protein.

By UniProt entry, the sequences of proteins in these tests, tags left out.
UniProt Q13547: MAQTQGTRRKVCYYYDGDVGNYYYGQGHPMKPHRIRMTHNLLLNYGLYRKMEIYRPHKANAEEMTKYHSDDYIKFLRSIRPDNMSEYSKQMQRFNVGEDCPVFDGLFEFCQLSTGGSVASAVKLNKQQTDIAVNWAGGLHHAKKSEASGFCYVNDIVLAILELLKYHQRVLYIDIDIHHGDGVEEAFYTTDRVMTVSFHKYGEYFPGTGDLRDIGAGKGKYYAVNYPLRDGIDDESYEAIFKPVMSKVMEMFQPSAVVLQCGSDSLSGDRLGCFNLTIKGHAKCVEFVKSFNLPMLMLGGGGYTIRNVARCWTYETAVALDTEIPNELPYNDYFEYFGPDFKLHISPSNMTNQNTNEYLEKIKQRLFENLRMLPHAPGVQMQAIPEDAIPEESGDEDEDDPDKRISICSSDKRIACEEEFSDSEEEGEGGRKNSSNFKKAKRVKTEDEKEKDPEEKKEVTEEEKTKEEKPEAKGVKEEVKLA

T1: V5-tagged version of the endogenous GSE1 protein (human) (UniProt Q14687)
T1 sequence: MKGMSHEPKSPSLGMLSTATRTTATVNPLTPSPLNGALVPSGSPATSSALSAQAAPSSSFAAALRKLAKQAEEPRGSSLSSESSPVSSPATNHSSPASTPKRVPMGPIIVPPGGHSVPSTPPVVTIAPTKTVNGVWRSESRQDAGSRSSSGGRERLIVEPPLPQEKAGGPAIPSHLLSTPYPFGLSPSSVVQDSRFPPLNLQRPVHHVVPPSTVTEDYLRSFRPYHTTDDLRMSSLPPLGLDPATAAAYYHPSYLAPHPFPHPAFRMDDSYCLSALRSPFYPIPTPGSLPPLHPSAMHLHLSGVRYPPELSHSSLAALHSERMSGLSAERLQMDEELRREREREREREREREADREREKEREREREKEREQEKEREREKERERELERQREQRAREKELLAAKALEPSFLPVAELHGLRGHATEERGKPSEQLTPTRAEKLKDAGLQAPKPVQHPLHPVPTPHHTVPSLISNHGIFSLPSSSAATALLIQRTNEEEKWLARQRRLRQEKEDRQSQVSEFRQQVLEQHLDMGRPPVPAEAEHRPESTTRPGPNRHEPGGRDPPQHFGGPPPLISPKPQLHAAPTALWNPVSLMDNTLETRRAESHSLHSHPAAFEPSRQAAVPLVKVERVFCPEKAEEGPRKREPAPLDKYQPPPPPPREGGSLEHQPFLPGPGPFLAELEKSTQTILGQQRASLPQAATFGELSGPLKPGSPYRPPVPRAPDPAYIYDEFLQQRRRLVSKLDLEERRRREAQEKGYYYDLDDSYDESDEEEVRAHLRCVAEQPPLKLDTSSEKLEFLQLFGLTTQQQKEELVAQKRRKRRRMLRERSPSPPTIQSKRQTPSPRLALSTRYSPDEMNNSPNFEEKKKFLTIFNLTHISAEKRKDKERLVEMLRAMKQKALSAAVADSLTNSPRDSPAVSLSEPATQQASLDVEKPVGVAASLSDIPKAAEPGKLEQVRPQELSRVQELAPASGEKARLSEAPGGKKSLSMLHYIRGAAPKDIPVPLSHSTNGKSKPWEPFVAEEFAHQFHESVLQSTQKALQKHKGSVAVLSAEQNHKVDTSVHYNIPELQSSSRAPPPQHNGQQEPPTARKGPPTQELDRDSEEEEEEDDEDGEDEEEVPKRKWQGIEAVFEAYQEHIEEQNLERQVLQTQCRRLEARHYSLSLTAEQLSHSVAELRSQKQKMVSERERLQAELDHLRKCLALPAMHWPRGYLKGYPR

B1: Genetic suppressor element 1 (GSE1) (protein, UniProt Q14687 1-1217)
chain: T1 sequence
B2: ZEB2 (protein, UniProt O60315 1-1214)
chain: MKQPIMADGPRCKRRKQANPRRKNVVNYDNVVDTGSETDEEDKLHIAEDDGIANPLDQETSPASVPNHESSPHVSQALLPREEEEDEIREGGVEHPWHNNEILQASVDGPEEMKEDYDTMGPEATIQTAINNGTVKNANCTSDFEEYFAKRKLEERDGHAVSIEEYLQRSDTAIIYPEAPEELSRLGTPEANGQEENDLPPGTPDAFAQLLTCPYCDRGYKRLTSLKEHIKYRHEKNEENFSCPLCSYTFAYRTQLERHMVTHKPGTDQHQMLTQGAGNRKFKCTECGKAFKYKHHLKEHLRIHSGEKPYECPNCKKRFSHSGSYSSHISSKKCIGLISVNGRMRNNIKTGSSPNSVSSSPTNSAITQLRNKLENGKPLSMSEQTGLLKIKTEPLDFNDYKVLMATHGFSGTSPFMNGGLGATSPLGVHPSAQSPMQHLGVGMEAPLLGFPTMNSNLSEVQKVLQIVDNTVSRQKMDCKAEEISKLKGYHMKDPCSQPEEQGVTSPNIPPVGLPVVSHNGATKSIIDYTLEKVNEAKACLQSLTTDSRRQISNIKKEKLRTLIDLVTDDKMIENHNISTPFSCQFCKESFPGPIPLHQHERYLCKMNEEIKAVLQPHENIVPNKAGVFVDNKALLLSSVLSEKGMTSPINPYKDHMSVLKAYYAMNMEPNSDELLKISIAVGLPQEFVKEWFEQRKVYQYSNSRSPSLERSSKPLAPNSNPPTKDSLLPRSPVKPMDSITSPSIAELHNSVTNCDPPLRLTKPSHFTNIKPVEKLDHSRSNTPSPLNLSSTSSKNSHSSSYTPNSFSSEELQAEPLDLSLPKQMKEPKSIIATKNKTKASSISLDHNSVSSSSENSDEPLNLTFIKKEFSNSNNLDNKSTNPVFSMNPFSAKPLYTALPPQSAFPPATFMPPVQTSIPGLRPYPGLDQMSFLPHMAYTYPTGAATFADMQQRRKYQRKQGFQGELLDGAQDYMSGLDDMTDSDSCLSRKKIKKTESGMYACDLCDKTFQKSSSLLRHKYEHTGKRPHQCQICKKAFKHKHHLIEHSRLHSGEKPYQCDKCGKRFSHSGSYSQHMNHRYSYCKREAEEREAAEREAREKGHLEPTELLMNRAYLQSITPQGYSDSEERESMPRDGESEKEHEKEGEDGYGKLGRQDGDEEFEEEEEESENKSMDTDPETIRDEEETGDHSMDDSSEDGKMETKSDHEEDNMEDGM
B3: OGT (protein, UniProt O15294 1-1046)
chain: MASSVGNVADSTEPTKRMLSFQGLAELAHREYQAGDFEAAERHCMQLWRQEPDNTGVLLLLSSIHFQCRRLDRSAHFSTLAIKQNPLLAEAYSNLGNVYKERGQLQEAIEHYRHALRLKPDFIDGYINLAAALVAAGDMEGAVQAYVSALQYNPDLYCVRSDLGNLLKALGRLEEAKACYLKAIETQPNFAVAWSNLGCVFNAQGEIWLAIHHFEKAVTLDPNFLDAYINLGNVLKEARIFDRAVAAYLRALSLSPNHAVVHGNLACVYYEQGLIDLAIDTYRRAIELQPHFPDAYCNLANALKEKGSVAEAEDCYNTALRLCPTHADSLNNLANIKREQGNIEEAVRLYRKALEVFPEFAAAHSNLASVLQQQGKLQEALMHYKEAIRISPTFADAYSNMGNTLKEMQDVQGALQCYTRAIQINPAFADAHSNLASIHKDSGNIPEAIASYRTALKLKPDFPDAYCNLAHCLQIVCDWTDYDERMKKLVSIVADQLEKNRLPSVHPHHSMLYPLSHGFRKAIAERHGNLCLDKINVLHKPPYEHPKDLKLSDGRLRVGYVSSDFGNHPTSHLMQSIPGMHNPDKFEVFCYALSPDDGTNFRVKVMAEANHFIDLSQIPCNGKAADRIHQDGIHILVNMNGYTKGARNELFALRPAPIQAMWLGYPGTSGALFMDYIITDQETSPAEVAEQYSEKLAYMPHTFFIGDHANMFPHLKKKAVIDFKSNGHIYDNRIVLNGIDLKAFLDSLPDVKIVKMKCPDGGDNADSSNTALNMPVIPMNTIAEAVIEMINRGQIQITINGFSISNGLATTQINNKAATGEEVPRTIIVTTRSQYGLPEDAIVYCNFNQLYKIDPSTLQMWANILKRVPNSVLWLLRFPAVGEPNIQQYAQNMGLPQNRIIFSPVAPKEEHVRRGQLADVCLDTPLCNGHTTGMDVLWAGTPMVTMPGETLASRVAASQLTCLGCLELIAKNRQEYEDIAVKLGTDLEYLKKVRGKVWKQRISSPLFNTKQYTMELERLYLQMWEHYAAGNKPDHMIKPVEVTESA
B4: HMB20B (protein, UniProt Q9P0W2 1-317)
chain: MSHGPKQPGAAAAPAGGKAPGQHGGFVVTVKQERGEGPRAGEKGSHEEEPVKKRGWPKGKKRKKILPNGPKAPVTGYVRFLNERREQIRTRHPDLPFPEITKMLGAEWSKLQPTEKQRYLDEAEREKQQYMKELRAYQQSEAYKMCTEKIQEKKIKKEDSSSGLMNTLLNGHKGGDCDGFSTFDVPIFTEEFLDQNKAREAELRRLRKMNVAFEEQNAVLQRHTQSMSSARERLEQELALEERRTLALQQQLQAVRQALTASFASLPVPGTGETPTLGTLDFYMARLHGAIERDPAQHEKLIVRIKEILAQVASEHL
B5: DDX46 (protein, UniProt Q7L014 1-1031)
chain: MGRESRHYRKRSASRGRSGSRSRSRSPSDKRSKRGDDRRSRSRDRDRRRERSRSRDKRRSRSRDRKRLRRSRSRERDRSRERRRSRSRDRRRSRSRSRGRRSRSSSPGNKSKKTENRSRSKEKTDGGESSKEKKKDKDDKEDEKEKDAGNFDQNKLEEEMRKRKERVEKWREEQRKKAMENIGELKKEIEEMKQGKKWSLEDDDDDEDDPAEAEKEGNEMEGEELDPLDAYMEEVKEEVKKFNMRSVKGGGGNEKKSGPTVTKVVTVVTTKKAVVDSDKKKGELMENDQDAMEYSSEEEEVDLQTALTGYQTKQRKLLEPVDHGKIEYEPFRKNFYVEVPELAKMSQEEVNVFRLEMEGITVKGKGCPKPIKSWVQCGISMKILNSLKKHGYEKPTPIQTQAIPAIMSGRDLIGIAKTGSGKTIAFLLPMFRHIMDQRSLEEGEGPIAVIMTPTRELALQITKECKKFSKTLGLRVVCVYGGTGISEQIAELKRGAEIIVCTPGRMIDMLAANSGRVTNLRRVTYVVLDEADRMFDMGFEPQVMRIVDNVRPDRQTVMFSATFPRAMEALARRILSKPIEVQVGGRSVVCSDVEQQVIVIEEEKKFLKLLELLGHYQESGSVIIFVDKQEHADGLLKDLMRASYPCMSLHGGIDQYDRDSIINDFKNGTCKLLVATSVAARGLDVKHLILVVNYSCPNHYEDYVHRAGRTGRAGNKGYAYTFITEDQARYAGDIIKALELSGTAVPPDLEKLWSDFKDQQKAEGKIIKKSSGFSGKGFKFDETEQALANERKKLQKAALGLQDSDDEDAAVDIDEQIESMFNSKKRVKDMAAPGTSSVPAPTAGNAEKLEIAKRLALRINAQKNLGIESQDVMQQATNAILRGGTILAPTVSAKTIAEQLAEKINAKLNYVPLEKQEEERQDGGQNESFKRYEEELEINDFPQTARWKVTSKEALQRISEYSEAAITIRGTYFPPGKEPKEGERKIYLAIESANELAVQKAKAEITRLIKEELIRLQNSYQPTNKGRYKVL

Legend:
[1] = target: C-terminally FLAG-tagged wildtype HDAC1 (UniProt Q13547); test: affinity purification with mass spectrometry; HDAC1-FLAG captured on crosslinked M2-FLAG beads from HAP1 whole cell extract (Hunt buffer: 20 mM Tris/HCl pH 8.0, 100 mM NaCl, 1 mM EDTA, 0.5% NP-40), overnight 4°C; control HDAC1 KO cells; on-bead digest, label-free quantification
[2] = target: T1, V5-tagged version of the endogenous GSE1 protein (human); test: affinity purification with mass spectrometry; GSE1-V5 captured on V5-beads from HAP1 whole cell extract (Hunt buffer), untreated and 6 h etoposide treated cells; control HAP1 WT cells; on-bead digest, label-free quantification

| Binder | binding [1] | binding [2] |
| --- | --- | --- |
| B1 | binds |  |
| B2 | binds |  |
| B3 | binds |  |
| B4 |  | binds |
| B5 |  | binds |
